Article PMC3490818
No constants are given. Whether binding was seen depends on the method and setting. For some assays here: In cells and extracts the contact can be indirect. Some entries that bind do so weakly or less than the wild type.

Protein sequences, listed by entry. Tags and fused reporters are not part of them. Lines headed by an entry give the natural chain unless they say otherwise; changes in a name come on top.
UniProt Q00341: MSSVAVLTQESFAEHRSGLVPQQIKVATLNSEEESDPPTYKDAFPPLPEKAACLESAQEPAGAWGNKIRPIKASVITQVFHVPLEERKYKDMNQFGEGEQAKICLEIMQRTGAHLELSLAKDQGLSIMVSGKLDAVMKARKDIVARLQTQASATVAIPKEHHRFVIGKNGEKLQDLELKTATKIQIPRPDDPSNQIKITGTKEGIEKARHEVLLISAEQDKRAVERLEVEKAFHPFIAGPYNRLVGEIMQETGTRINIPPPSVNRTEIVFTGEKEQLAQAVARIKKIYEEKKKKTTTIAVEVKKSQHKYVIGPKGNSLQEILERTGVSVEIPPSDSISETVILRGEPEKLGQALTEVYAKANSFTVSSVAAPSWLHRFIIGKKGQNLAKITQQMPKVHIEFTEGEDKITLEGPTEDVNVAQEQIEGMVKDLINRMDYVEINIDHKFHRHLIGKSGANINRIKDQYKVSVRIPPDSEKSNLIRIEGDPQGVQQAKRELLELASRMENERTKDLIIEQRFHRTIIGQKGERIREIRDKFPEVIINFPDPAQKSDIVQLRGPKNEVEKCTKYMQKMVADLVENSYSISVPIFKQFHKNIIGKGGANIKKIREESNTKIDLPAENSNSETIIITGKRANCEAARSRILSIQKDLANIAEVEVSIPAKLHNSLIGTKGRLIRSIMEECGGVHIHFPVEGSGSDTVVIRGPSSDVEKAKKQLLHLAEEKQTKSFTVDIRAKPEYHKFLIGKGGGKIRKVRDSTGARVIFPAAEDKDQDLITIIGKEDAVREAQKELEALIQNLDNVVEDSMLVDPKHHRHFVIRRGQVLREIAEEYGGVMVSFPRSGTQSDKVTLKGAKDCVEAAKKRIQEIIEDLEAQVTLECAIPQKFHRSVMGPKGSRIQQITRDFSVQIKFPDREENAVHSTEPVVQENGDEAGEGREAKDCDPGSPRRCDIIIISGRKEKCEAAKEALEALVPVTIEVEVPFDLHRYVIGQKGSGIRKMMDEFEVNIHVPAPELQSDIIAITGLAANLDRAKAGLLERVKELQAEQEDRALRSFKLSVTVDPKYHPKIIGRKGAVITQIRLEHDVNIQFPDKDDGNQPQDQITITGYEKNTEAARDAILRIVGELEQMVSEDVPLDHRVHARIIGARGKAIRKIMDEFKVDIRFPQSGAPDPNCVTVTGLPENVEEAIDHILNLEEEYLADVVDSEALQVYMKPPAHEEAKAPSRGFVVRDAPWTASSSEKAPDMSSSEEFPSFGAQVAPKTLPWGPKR

B1: Signal peptide peptidase, Q8TCT9 1-377 (natural protein)
chain: MDSALSDPHNGSAEAGGPTNSTTRPPSTPEGIALAYGSLLLMALLPIFFGALRSVRCARGKNASDMPETITSRDAARFPIIASCTLLGLYLFFKIFSQEYINLLLSMYFFVLGILALSHTISPFMNKFFPASFPNRQYQLLFTQGSGENKEEIINYEFDTKDLVCLGLSSIVGVWYLLRKHWIANNLFGLAFSLNGVELLHLNNVSTGCILLGGLFIYDVFWVFGTNVMVTVAKSFEAPIKLVFPQDLLEKGLEANNFAMLGLGDVVIPGIFIALLLRFDISLKKNTHTYFYTSFAAYIFGLGLTIFIMHIFKHAQPALLYLVPACIGFPVLVALAKGEVTEMFSYEESNPKDPAAVTESKEGTEASASKGLEKKEK
B2: Signal peptide peptidase (protein, UniProt Q8TCT9 1-377)
chain: B1 chain

Key:
[1] = target: T1, Signal peptide peptidase (human (endogenous in HEK293)) (UniProt Q8TCT9); test: co-IP; HEK293 or HEK293 vigilin-FLAG lysate solubilized in HEPES buffer with 0.5% DDM; antibodies against SPP-CT, SPPL2b, FLAG or vigilin, overnight at 4°C; five washes with 0.02% DDM; controls pre-immune rabbit serum or anti-HA; Western blot
T1 sequence: B1 chain

[2] = target: T1, Signal peptide peptidase (human (endogenous in HEK293)); test: native gel or EMSA; BN-PAGE of HEK293 or HEK293 vigilin-FLAG lysates solubilized in 0.5% DDM, Western blot for SPP and vigilin (or FLAG); second dimension SDS-PAGE for SPP
[3] = target: T2, SPPL2b (human (endogenous in HEK293)) (UniProt Q8TCT7); test: co-IP; HEK293 or HEK293 vigilin-FLAG lysate solubilized in HEPES buffer with 0.5% DDM; antibodies against SPP-CT, SPPL2b, FLAG or vigilin, overnight at 4°C; five washes with 0.02% DDM; controls pre-immune rabbit serum or anti-HA; Western blot
T2 sequence: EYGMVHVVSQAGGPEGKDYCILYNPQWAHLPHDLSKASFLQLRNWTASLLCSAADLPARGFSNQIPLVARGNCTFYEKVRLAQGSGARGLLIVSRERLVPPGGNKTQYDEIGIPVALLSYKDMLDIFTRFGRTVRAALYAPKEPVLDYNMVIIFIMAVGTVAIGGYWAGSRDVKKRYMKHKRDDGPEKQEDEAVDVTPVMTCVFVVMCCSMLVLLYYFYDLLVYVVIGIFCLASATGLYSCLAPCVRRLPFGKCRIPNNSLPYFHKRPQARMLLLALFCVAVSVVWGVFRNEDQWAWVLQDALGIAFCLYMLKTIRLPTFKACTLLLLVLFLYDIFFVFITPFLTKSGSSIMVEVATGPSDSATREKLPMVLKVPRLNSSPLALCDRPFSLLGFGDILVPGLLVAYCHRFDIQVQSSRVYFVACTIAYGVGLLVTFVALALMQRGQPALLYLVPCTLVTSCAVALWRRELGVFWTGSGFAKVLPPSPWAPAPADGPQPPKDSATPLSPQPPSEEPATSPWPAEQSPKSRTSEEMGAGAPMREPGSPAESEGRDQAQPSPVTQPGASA

[4] = target: T3, Signal peptide peptidase (human (endogenous in HEK293)), Q8TCT9; test: as above; settings: remark: other sources report otherwise
T3 chain: B1 chain

[5] = target: T3, Signal peptide peptidase (human …); test: SDS-PAGE and Western blot of affinity-purified SPP; eluate of the anti-SPP-CT affinity purification from HEK293 microsomal membranes in 0.5% DDM, resolved by SDS-PAGE, probed with anti-SPP antibody; settings: remark: other sources report otherwise
[6] = target: FLAG-tagged vigilin (human) (UniProt Q00341); test: co-IP; HEK293 or HEK293 vigilin-FLAG lysate solubilized in HEPES buffer with 0.5% DDM; antibodies against SPP-CT, SPPL2b, FLAG or vigilin, overnight at 4°C; five washes with 0.02% DDM; controls pre-immune rabbit serum or anti-HA; Western blot

| Molecule | binding [1] | binding [2] | further results |
| --- | --- | --- | --- |
| Vigilin (from UniProt Q00341-1 1-1268) | binds | binds |  |
| FLAG-tagged vigilin (from UniProt Q00341-1 1-1268) | binds | binds | binding [3]: no binding |
| B1 |  |  | binding [4]: binds; binding [5]: binds |
| B2 |  |  | binding [6]: binds |
